These are yes or no findings as the source states them, for the method shown. Some results given as binding are weak or reduced against the parent protein; the word gives no strength.
T1: hCMV gM and gN co-expressed in HEK293T cells (human cytomegalovirus) (UniProt P16733)
T1 sequence 1: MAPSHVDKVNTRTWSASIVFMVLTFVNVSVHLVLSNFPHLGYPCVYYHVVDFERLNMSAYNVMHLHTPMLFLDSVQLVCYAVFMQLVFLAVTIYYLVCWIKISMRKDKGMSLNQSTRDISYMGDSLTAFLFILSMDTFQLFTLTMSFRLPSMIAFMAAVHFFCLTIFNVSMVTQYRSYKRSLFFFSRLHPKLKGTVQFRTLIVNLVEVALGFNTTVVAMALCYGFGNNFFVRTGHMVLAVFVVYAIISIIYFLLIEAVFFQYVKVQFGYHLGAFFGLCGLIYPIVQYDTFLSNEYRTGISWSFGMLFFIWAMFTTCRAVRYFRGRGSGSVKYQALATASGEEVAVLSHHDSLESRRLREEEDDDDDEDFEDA
T1 sequence 2: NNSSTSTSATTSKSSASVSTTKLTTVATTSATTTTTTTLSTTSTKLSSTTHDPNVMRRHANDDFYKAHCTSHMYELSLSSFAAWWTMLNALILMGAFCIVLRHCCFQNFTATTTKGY

Protein sequences, listed by entry. Tags and fused reporters are not part of them. Residues count along the entry.
UniProt P06473, residues 32-906: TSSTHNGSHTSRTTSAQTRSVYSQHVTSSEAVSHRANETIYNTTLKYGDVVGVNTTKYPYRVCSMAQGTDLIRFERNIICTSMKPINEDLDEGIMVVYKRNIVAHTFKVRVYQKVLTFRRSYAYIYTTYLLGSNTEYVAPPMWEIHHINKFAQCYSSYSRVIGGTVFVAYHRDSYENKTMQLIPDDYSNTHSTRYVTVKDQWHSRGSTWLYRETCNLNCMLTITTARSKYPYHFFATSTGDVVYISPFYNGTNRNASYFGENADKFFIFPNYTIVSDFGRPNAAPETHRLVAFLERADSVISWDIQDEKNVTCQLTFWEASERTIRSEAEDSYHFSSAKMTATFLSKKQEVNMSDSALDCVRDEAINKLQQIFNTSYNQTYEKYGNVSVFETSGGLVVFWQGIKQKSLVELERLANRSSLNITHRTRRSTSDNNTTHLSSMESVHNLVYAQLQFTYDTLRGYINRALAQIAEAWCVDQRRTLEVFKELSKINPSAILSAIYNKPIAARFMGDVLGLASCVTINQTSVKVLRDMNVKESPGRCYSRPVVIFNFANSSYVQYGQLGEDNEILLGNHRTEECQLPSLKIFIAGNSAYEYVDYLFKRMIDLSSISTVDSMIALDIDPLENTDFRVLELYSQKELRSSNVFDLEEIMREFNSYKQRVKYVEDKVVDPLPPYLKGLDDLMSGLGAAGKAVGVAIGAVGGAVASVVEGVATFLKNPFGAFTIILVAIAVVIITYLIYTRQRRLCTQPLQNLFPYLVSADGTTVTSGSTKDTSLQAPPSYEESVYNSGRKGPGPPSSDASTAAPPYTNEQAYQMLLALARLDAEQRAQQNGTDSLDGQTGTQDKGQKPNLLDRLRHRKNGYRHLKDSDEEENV


What was measured:
[1] = molecular target: hCMV gB protein, full length, expressed in HEK293T cells (human cytomegalovirus) (UniProt P06473); assay: summary of staining and cross-competition
[2] = molecular target: hCMV gB protein, full length, expressed in HEK293T cells (human cytomegalovirus) (UniProt P06473); assay: staining of transfected HEK293T
[3] = molecular target: T1, hCMV gM and gN co-expressed in HEK293T cells (human cytomegalovirus); assay: staining of transfected HEK293T

Row | Binder | binding [1] | binding [2] | binding [3]
1 | 6B4 (antibody, V domains shown) VH: QVQLVESGGGVVQPGRSLRLSCAASGFRFNEFNMHWVRQAPGKGLEWVAVISIDGRHKYNADSVEGRFTISRDNSRNTLYLQMNSLRVEDTALYYCVTDGKAVDGFSGILEFWGQGTPVTVST VL: EIVLTQSPATLSLSPGERATLSCWASQSVGGYLAWYQQKPGQAPRLLIYDASIRATGIPARFSGSGSGTHFTLTINSLEPEDFAVYYCQQRNNWPPLTFGGGTKVEIK | binds | binds | –
2 | 6L3 (antibody, V domains shown) VH: EVRLEESGGGLVQPGGSLRLSCAASGFTVSTTYMAWVRQAPGKGLEWVSLIHTGGIFGVGGTSYADSVKGRFTISRDTSKNTVSLQMSSLRVEDTAIYFCAREHRGTIDAFDAWGQGTVVIVSS VL: DIHMTQSPSSLSASVGDRVTITCRASQNIRNYLNWYQHKPGKAPKLLIYTTSRLQSGVPSRFSGSGSGTDFTLTVNSLQPEDFASYYCQQSYDGWTFGQGTKVEMK | – | – | binds
3 | 10C6 (antibody, V domains shown) VH: AVQLVESGGGLAQPGRSLRLSCKVSGFSFSNFEMNWVRQAPGKGLEWIAYIDFTGSTIYYSDSVKGRFTISRDTARNSLYLQMNKLRVEDTAVYYCVRDAGRWGTSWYYFDYWGQGTLVTVSS VL: QSVLTQPPSVSGAPGQRVTISCTGLSSNIGAGYDIHWYQQIPGKAPKLLIYGNNNRPSGVPDRFSGSKSGTSVSLAITGLQAEDEADYYCQSYDSSLNGWVFGGGTRLTVL | binds | binds | –
4 | 2B11 (antibody, V domains shown) VH: AVRLVESGGGLAQPGRSLRLSCQVSGFTFGSYEMNWVRQAPGKGLEWIAYIDFTGSTIYYADSVKGRFTISRNTARNSLYLQMNSLRVEDTAVYYCVRDAGRWGTSWYYFDYWGQGTRVTVSP VL: QSVLTQPPSVSGAPGQRVTISCTGISSNIGAGYDIHWYQQIPGKAPKLLVYGNNNRPSGVPDRFSGSKSGTSVSLAITGLQVEDEADYYCQSYDNSLNGWVFGGGTRLTVL | binds | binds | –
5 | 5F1 (antibody, V domains shown) VH: AVQLVESGGGLAQPGRSLRLSCKVSGFTFSSYEMNWVRQAPGKGLEWIAYIDFTGSTIYYADSVKGRFTISRDTARNSLYLQMNKLRVEDTAVYYCVRDAGRWGTSWYYFDYWGQGTLVTVSS VL: QSVLTQPPSVSGAPGQRVTISCTGLSSNIGAGYDIHWYQQIPGKAPKLLIYGNNNRPSGVPDRFSGSKSGTSVSLAITGLQAEDEADYYCQSYDSSLNGWVFGGGTRLTVL | binds | binds | –
6 | 4H9 (antibody, V domains shown) VH: AVQLVESGGGLVRPGGSLRLSCAASGFTFSSHEMHWVRQAPGKGLEWLSYIDFTGSIIYYADSVRGRFTISRDNTKKSLFLQMNSLRDEDTALYYCARDGGRWGTSWYYFDYWGQGVLVTVSS VL: QSVLTQPPSVSGAPGQRVTITCTGSSSNFGAGYDGHWYQQLPGTAPKLLIYGSNRPSGVPDRFSGSKSGTSVSLAITGLQADDEADYYCQSYDSSLSAWVFGGGTKLTVL | binds | binds | –
7 | 7H3 (antibody, V domains shown) VH: QVQLVQSGAEVKNPGASVKVSCKASGYTFTDYYIHWVRQAPGQGLEWMGWFNPNSGGTNFVQNFQGRVTMTRDTSISTAYMELSRLRSDDTAMYYCAKDSAKTASAYYGLNFFYYGMDVWGQGTTVTVSS VL: QSVLSQPPSASGTPGQRVTISCSGSSSNIGKNYVYWYQQVPGTAPKLLMFKNNQRPSGVPDRFSGSKSGTSASLAISGLRSEDEADYYCSAWDGSLSRPLFGGGTKVTVL | binds | binds | –
